Measured values taken from the supplement of paper PMC10849652.
This is one part of the list.

By UniProt entry, the sequences of proteins in these tests, tags left out. Where a name states a change or a piece, a line headed by the entry shows the natural chain unless it says otherwise.
UniProt P54278: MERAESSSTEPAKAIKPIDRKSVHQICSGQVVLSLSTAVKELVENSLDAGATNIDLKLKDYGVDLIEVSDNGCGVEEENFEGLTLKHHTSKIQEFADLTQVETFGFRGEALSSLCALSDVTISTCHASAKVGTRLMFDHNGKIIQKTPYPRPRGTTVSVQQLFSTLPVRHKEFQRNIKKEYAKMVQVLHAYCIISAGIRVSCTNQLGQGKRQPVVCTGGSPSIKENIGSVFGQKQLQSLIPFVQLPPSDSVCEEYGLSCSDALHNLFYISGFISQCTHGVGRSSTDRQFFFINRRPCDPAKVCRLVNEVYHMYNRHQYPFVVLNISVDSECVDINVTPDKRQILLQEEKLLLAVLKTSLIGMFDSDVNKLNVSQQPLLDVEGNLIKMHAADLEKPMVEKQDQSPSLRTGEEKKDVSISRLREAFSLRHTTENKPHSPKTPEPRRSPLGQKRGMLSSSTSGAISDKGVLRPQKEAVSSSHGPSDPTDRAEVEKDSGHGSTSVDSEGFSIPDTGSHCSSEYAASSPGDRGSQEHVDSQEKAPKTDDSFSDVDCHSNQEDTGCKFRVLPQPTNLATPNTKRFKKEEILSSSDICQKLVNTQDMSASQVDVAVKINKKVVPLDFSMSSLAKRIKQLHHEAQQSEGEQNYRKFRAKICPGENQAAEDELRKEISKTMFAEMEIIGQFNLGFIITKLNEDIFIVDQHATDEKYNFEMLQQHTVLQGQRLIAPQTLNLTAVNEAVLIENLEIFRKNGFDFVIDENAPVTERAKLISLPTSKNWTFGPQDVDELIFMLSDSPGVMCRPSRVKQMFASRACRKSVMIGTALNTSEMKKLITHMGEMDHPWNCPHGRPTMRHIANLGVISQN
UniProt P28340: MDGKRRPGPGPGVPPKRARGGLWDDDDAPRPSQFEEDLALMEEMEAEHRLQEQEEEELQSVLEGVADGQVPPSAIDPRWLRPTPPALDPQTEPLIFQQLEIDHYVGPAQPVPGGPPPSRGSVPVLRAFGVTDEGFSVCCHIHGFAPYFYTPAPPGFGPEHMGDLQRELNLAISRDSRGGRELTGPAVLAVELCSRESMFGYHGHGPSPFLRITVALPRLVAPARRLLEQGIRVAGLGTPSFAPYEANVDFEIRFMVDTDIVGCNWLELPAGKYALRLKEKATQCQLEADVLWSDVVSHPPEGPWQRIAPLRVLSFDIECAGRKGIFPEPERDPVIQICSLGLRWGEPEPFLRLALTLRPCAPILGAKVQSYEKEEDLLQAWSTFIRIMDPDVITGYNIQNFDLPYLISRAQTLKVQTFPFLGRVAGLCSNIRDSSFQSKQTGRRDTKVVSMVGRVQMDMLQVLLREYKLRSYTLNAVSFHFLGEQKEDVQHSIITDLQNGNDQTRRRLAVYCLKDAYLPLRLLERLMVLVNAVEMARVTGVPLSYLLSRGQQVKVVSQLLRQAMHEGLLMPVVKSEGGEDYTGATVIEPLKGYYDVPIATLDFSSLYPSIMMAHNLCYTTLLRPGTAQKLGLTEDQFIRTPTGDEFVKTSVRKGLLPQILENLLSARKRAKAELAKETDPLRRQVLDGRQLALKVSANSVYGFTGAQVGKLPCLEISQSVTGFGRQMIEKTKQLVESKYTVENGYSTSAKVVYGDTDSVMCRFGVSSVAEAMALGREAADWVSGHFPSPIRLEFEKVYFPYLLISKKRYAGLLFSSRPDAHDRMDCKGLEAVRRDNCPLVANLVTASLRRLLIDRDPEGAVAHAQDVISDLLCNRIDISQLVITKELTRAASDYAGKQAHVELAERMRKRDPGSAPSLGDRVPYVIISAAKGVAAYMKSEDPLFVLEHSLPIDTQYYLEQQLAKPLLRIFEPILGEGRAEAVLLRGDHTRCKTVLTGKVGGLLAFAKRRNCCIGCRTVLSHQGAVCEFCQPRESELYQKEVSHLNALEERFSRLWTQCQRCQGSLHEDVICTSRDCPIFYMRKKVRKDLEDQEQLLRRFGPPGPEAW
UniProt P29590: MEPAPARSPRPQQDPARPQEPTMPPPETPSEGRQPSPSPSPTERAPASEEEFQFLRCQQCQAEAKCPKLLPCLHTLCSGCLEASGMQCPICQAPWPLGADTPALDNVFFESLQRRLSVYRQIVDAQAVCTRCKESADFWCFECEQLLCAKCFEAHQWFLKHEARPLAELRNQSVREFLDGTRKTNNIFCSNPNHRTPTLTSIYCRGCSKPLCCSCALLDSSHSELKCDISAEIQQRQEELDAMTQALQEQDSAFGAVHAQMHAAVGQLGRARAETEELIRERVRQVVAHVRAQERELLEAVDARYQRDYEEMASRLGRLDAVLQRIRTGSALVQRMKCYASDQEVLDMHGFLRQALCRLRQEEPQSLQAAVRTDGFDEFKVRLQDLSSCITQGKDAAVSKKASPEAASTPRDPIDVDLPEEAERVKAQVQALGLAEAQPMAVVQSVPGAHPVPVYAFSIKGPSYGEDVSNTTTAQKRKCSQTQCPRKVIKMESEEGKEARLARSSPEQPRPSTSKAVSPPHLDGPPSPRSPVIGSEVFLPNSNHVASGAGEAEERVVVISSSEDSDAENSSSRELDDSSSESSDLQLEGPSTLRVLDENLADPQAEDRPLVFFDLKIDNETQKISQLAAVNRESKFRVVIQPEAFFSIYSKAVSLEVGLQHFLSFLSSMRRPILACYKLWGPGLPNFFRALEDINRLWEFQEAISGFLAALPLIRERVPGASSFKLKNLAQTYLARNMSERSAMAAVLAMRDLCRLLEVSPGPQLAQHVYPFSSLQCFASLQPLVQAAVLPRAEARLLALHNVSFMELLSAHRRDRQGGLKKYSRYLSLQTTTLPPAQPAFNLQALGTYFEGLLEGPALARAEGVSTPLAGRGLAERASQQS
UniProt Q8WZA1: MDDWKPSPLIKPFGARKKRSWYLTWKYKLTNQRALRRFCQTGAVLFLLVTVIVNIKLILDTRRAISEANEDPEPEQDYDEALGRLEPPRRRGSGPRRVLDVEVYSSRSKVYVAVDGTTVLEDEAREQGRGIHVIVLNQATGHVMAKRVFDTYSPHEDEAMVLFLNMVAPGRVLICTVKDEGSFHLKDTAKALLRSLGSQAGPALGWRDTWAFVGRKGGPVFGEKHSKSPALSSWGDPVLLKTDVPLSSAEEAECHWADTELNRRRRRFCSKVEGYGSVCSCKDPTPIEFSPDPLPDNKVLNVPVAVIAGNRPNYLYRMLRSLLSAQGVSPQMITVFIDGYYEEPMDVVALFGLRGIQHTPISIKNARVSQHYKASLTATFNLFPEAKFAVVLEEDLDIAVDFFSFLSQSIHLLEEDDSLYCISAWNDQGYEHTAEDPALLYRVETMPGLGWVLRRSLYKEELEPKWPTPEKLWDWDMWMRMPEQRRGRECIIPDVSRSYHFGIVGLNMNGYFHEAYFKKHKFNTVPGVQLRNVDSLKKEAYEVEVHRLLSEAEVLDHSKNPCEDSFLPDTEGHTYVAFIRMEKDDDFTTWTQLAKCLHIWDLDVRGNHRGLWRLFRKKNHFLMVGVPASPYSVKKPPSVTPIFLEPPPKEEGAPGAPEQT
UniProt Q9NRF9: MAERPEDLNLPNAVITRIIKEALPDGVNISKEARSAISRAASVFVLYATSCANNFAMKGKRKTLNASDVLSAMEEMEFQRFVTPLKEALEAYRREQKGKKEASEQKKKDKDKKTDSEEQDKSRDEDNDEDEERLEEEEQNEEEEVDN
UniProt O75817: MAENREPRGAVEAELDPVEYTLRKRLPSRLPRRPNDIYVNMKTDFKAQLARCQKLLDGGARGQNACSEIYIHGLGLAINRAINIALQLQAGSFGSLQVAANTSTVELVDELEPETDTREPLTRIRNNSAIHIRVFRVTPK
UniProt Q96HA1, whole entry, looked up: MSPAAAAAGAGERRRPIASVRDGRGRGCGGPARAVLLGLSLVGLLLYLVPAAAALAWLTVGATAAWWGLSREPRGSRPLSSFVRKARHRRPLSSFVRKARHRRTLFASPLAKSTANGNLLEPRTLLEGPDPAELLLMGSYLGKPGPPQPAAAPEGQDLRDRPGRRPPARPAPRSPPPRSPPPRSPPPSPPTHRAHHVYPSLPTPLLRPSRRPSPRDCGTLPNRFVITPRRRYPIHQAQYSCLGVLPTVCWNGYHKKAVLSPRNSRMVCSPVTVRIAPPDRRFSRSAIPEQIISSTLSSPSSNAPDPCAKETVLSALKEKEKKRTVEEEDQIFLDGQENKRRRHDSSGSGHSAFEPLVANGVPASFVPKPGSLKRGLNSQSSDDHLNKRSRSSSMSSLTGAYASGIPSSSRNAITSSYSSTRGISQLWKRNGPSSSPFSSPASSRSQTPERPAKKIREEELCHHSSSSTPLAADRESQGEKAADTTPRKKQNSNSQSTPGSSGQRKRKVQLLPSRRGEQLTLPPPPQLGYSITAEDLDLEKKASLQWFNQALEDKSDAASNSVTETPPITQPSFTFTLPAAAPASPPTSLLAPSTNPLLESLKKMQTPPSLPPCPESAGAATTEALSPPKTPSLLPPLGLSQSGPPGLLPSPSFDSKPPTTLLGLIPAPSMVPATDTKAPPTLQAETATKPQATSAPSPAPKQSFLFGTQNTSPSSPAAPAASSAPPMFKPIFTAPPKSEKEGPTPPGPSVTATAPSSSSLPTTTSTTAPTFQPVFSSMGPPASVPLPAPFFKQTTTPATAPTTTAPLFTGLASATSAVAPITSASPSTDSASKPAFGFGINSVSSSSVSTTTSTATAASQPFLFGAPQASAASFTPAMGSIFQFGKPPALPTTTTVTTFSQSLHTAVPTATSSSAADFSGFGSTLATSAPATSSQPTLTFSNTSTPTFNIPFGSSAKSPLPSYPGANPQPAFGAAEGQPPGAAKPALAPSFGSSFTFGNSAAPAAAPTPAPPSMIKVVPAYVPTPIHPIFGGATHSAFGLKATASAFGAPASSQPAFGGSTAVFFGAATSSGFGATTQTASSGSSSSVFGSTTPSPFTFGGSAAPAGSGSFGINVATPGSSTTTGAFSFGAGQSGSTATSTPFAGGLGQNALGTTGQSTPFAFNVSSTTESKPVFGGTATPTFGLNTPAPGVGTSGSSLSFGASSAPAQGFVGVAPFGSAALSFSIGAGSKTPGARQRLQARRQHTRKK
UniProt Q8TD55: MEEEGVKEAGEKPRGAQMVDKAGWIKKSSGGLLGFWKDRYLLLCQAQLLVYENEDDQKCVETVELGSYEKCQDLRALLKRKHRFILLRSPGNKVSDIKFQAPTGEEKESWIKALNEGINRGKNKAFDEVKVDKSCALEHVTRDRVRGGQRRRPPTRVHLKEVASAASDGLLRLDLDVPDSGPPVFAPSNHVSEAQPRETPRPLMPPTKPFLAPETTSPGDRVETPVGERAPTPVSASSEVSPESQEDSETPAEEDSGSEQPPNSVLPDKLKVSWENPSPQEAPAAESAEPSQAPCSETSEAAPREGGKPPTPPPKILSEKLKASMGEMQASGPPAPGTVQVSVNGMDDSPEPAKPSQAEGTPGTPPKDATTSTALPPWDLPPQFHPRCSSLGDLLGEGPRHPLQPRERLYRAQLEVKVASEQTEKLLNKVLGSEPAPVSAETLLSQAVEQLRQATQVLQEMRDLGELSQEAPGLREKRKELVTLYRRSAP
UniProt Q6EEV4: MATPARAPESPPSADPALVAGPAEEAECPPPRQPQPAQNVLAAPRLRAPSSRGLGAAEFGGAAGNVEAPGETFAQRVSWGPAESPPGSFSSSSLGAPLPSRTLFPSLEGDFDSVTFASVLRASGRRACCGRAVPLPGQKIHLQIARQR
UniProt Q8NBL1: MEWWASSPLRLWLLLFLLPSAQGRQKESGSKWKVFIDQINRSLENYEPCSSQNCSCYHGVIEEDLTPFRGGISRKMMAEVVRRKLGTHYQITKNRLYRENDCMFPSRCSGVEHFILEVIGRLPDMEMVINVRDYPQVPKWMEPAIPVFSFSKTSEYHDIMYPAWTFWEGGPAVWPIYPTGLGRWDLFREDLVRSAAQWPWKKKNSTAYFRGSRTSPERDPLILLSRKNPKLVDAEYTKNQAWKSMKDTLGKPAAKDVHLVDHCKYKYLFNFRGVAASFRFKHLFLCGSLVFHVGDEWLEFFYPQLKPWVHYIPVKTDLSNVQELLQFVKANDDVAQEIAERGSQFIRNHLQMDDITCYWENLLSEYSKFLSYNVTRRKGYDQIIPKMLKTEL

What was measured:
Experiment in all cases: log2 fold change, soluble protein after heating vs DMSO (PISA); higher = thermal stabilisation; K562 lysate, 10 uM; active = over 0.2 and 3.5 SD of the protein, either way, in both replicates (recomputed)
[1] = compound: C1=CC=C(C=C1)[C@H](COC2=CC3=C(C=C2)NC(=O)N3)NC(=O)C4=CC=CN(C4=O)CC5=CC(=C(C=C5)F)F
In short: (§1)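 Quantification was by TMTpro 16plex LC-MS/MS with equalised channel sums, applied to the supernatant after 21,000xg for 90 min. Samples were crude K562 extract at 1 mg/mL protein in PBS pH 7.4 with 1 mM MgCl2, treated with 10 μM compound for 30 min, heated for 3 min across 48°C-58°C, pooled and brought to 0.5% NP-40 at 4°C. Values are log-two fold changes in thermal stability relative to solvent controls, from duplicates.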

[2] = compound: CC1=C(SC2=C1C(=N[C@H](C3=NN=C(N32)C)CC(=O)N)C4=CC=C(C=C4)Cl)C
In short: as §1

[3] = compound: CC1=C2C(=CC=C1)N=C(N(C2=O)C3=CC=CC=C3C)CN4C=NC5=C(N=CN=C54)N
In short: as §1

[4] = compound: Cc1sc2c(c1C)C(c1ccc(Cl)cc1)=N[C@@H](CC(=O)OC(C)(C)C)c1nnc(C)n1-2
In short: as §1

[5] = compound: c1ccc([C@@H]2C[C@H]2NC2CCNCC2)cc1
In short: as §1

Measured: log2 fold change

POLR2G (UniProt P62487)
inactive: [1] 0.018 | [2] 0.021 | [3] -0.003 | [4] 0.007 | [5] -0.108

POLE2 (UniProt P56282)
inactive: [1] -0.023 | [2] 0.059 | [3] 0.115 | [4] -0.055 | [5] 0.002

POLDIP2 (UniProt Q9Y2S7)
inactive: [1] -0.02 | [2] 0.035 | [3] 0.001 | [4] 0.048 | [5] 0.017

PPIA isoform 2 (UniProt P62937)
inactive: [1] 0.034 | [2] 0.017

POLB (UniProt P06746)
inactive: [1] -0.02 | [2] -0.005 | [3] 0.028 | [4] 0.041 | [5] 0.021

PLOD2 isoform 2 (UniProt O00469)
inactive: [1] -0.189 | [2] 0.069 | [3] -0.125 | [4] -0.391

POLR1A (UniProt O95602)
inactive: [1] 0.061 | [2] -0.011 | [3] 0.014 | [4] -0.082 | [5] 0.018

PLIN3 (UniProt O60664)
inactive: [1] 0.016 | [2] -0.018 | [3] -0.007 | [4] 0.026 | [5] 0.001

POLR3E (UniProt Q9NVU0)
inactive: [1] -0.031 | [2] -0.003 | [3] -0.001 | [4] -0.002 | [5] -0.012

POU2F1 isoform 6 (UniProt P14859)
inactive: [1] 0.009 | [2] 0.048 | [3] 0.07 | [4] 0.02 | [5] 0.052

POLR2B (UniProt P30876)
inactive: [1] -0.021 | [2] 0.024 | [3] 0.019 | [4] 0.021 | [5] 0.013

PLGRKT (UniProt Q9HBL7)
inactive: [1] 0.022 | [2] 0.069 | [3] 0.011 | [4] 0.143

POLR1B isoform 3 (UniProt Q9H9Y6)
inactive: [1] -0.07 | [2] 0.07 | [3] 0.069 | [4] 0.001 | [5] -0.038

PMS2 (UniProt P54278)
inactive: [1] -0.021 | [2] 0.005 | [3] 0.024 | [4] -0.031 | [5] 0.039

PLSCR1 (UniProt O15162)
inactive: [1] 0.14 | [2] 0.009 | [3] 0.035 | [4] -0.074 | [5] -0.07

PNISR (UniProt Q8TF01)
inactive: [1] 0.015 | [2] 0.02 | [3] -0.066 | [4] 0.007 | [5] -0.037

POLK (UniProt Q9UBT6)
inactive: [1] -0.07 | [2] 0.028

PMS2CL (UniProt Q68D20)
inactive: [1] 0 | [2] -0.04

POLE4 (UniProt Q9NR33)
inactive: [1] -0.084 | [2] 0.019 | [3] -0.012 | [4] -0.006 | [5] 0.013

PM20D2 (UniProt Q8IYS1)
inactive: [1] 0.232 | [2] 0.228 | [3] 0.087

POLD1 (UniProt P28340)
inactive: [1] 0.026 | [2] 0.003 | [3] 0.011 | [4] 0.03 | [5] 0.042

PMVK (UniProt Q15126)
inactive: [1] -0.054 | [2] 0.001 | [3] 0.011 | [4] 0.061 | [5] -0.054

POLR1C (UniProt O15160)
inactive: [1] -0.01 | [2] 0.026 | [3] 0.029 | [4] -0.026 | [5] 0.028

PML (UniProt P29590)
inactive: [1] 0.108 | [2] -0.019 | [3] -0.002 | [4] -0.003 | [5] -0.045

POP4 (UniProt O95707)
inactive: [1] 0.057 | [2] 0.114 | [3] 0.019 | [4] -0.029 | [5] 0.008

PNKP (UniProt Q96T60)
inactive: [1] -0.03 | [2] 0.068 | [3] 0.097 | [4] -0.079 | [5] -0.179

PPIE (UniProt Q9UNP9)
inactive: [1] 0.033 | [2] -0.023 | [3] 0.026 | [4] -0.04 | [5] -0.144

POMGNT1 isoform 2 (UniProt Q8WZA1)
inactive: [1] -0.072 | [2] 0.015 | [3] -0.027 | [4] -0.097 | [5] -0.04

POLG2 (UniProt J3KRM2)
inactive: [1] 0.161 | [2] 0.12

PLS3 (UniProt P13797)
inactive: [1] 0.011 | [2] 0.006 | [3] 0.011 | [4] -0.042 | [5] -0.065

Two entries drawn at random from those above:
PMS2 (UniProt P54278)
inactive: [1] -0.021 | [2] 0.005 | [3] 0.024 | [4] -0.031 | [5] 0.039

POLD1 (UniProt P28340)
inactive: [1] 0.026 | [2] 0.003 | [3] 0.011 | [4] 0.03 | [5] 0.042

Later entries.

POLR3K (UniProt Q9Y2Y1)
inactive: [1] 0.077 | [2] -0.01 | [3] -0.023 | [4] -0.092 | [5] -0.005

POTEI (UniProt P0CG38)
inactive: [1] -0.018 | [2] 0.028 | [3] 0.026 | [4] 0.013 | [5] 0.014

PPA2 (UniProt Q9H2U2)
inactive: [1] 0.006 | [2] 0.024 | [3] 0.011 | [4] -0.013 | [5] 0.007

POLE3 (UniProt Q9NRF9)
inactive: [1] 0.006 | [2] -0.017 | [3] -0.005 | [4] -0.006 | [5] -0.053

POR (UniProt P16435)
inactive: [1] -0.002 | [2] 0.031 | [3] 0.008 | [4] 0.016 | [5] -0.02

PPIA (UniProt P62937)
inactive: [1] -0.02 | [2] -0.014 | [3] 0.011 | [4] 0.013 | [5] 0.004

PPCDC (UniProt Q96CD2)
inactive: [1] -0.02 | [2] 0.034 | [3] -0.054 | [4] -0.074 | [5] -0.191

PNKD isoform 2 (UniProt Q8N490)
inactive: [1] 0.03 | [2] -0.038 | [3] 0.059 | [4] -0.052 | [5] 0.025

PLPBP (UniProt O94903)
inactive: [1] -0.011 | [2] 0.019 | [3] -0.003 | [4] 0.03 | [5] 0.048

POP7 (UniProt O75817)
inactive: [1] 0.008 | [2] 0.284 | [3] -0.072 | [4] 0.023 | [5] -0.052

POLRMT (UniProt O00411)
inactive: [1] -0.076 | [2] 0.064 | [3] 0.063 | [4] 0.051 | [5] 0.05

Twelve consecutive entries out of the list so far:
PMS2 (UniProt P54278)
inactive: [1] -0.021 | [2] 0.005 | [3] 0.024 | [4] -0.031 | [5] 0.039

PLSCR1 (UniProt O15162)
inactive: [1] 0.14 | [2] 0.009 | [3] 0.035 | [4] -0.074 | [5] -0.07

PNISR (UniProt Q8TF01)
inactive: [1] 0.015 | [2] 0.02 | [3] -0.066 | [4] 0.007 | [5] -0.037

POLK (UniProt Q9UBT6)
inactive: [1] -0.07 | [2] 0.028

PMS2CL (UniProt Q68D20)
inactive: [1] 0 | [2] -0.04

POLE4 (UniProt Q9NR33)
inactive: [1] -0.084 | [2] 0.019 | [3] -0.012 | [4] -0.006 | [5] 0.013

PM20D2 (UniProt Q8IYS1)
inactive: [1] 0.232 | [2] 0.228 | [3] 0.087

POLD1 (UniProt P28340)
inactive: [1] 0.026 | [2] 0.003 | [3] 0.011 | [4] 0.03 | [5] 0.042

PMVK (UniProt Q15126)
inactive: [1] -0.054 | [2] 0.001 | [3] 0.011 | [4] 0.061 | [5] -0.054

POLR1C (UniProt O15160)
inactive: [1] -0.01 | [2] 0.026 | [3] 0.029 | [4] -0.026 | [5] 0.028

PML (UniProt P29590)
inactive: [1] 0.108 | [2] -0.019 | [3] -0.002 | [4] -0.003 | [5] -0.045

POP4 (UniProt O95707)
inactive: [1] 0.057 | [2] 0.114 | [3] 0.019 | [4] -0.029 | [5] 0.008

(continued)

POLR3C (UniProt Q9BUI4)
inactive: [1] -0.003 | [2] -0.004 | [3] -0.033 | [4] -0.013 | [5] 0.003

POP1 (UniProt Q99575)
inactive: [1] -0.015 | [2] -0.037 | [3] 0.014 | [4] -0.011 | [5] 0.005

POM121 (UniProt Q96HA1)
inactive: [1] 0.011 | [2] -0.026 | [3] -0.031 | [4] -0.201 | [5] -0.014

POLD3 (UniProt Q15054)
inactive: [1] -0.004 | [2] 0.002 | [3] 0.019 | [4] 0 | [5] 0.034

PLEKHO2 (UniProt Q8TD55)
inactive: [1] -0.158 | [2] 0.077 | [3] -0.076 | [4] -0.107 | [5] 0.043

POLG (UniProt P54098)
inactive: [1] -0.127 | [2] 0.287 | [3] -0.05 | [4] -0.019 | [5] -0.173

PMPCB (UniProt O75439)
inactive: [1] -0.004 | [2] 0.031 | [3] -0.017 | [4] 0.003 | [5] 0.007

POLR3H (UniProt Q9Y535)
inactive: [1] 0.045 | [2] -0.024 | [3] 0.022 | [4] -0.013 | [5] -0.015

POGLUT3 (UniProt Q7Z4H8)
inactive: [1] 0.008 | [2] -0.028 | [3] -0.045 | [4] 0.021 | [5] -0.012

POLR2M (UniProt Q6EEV4)
inactive: [1] 0.01 | [2] 0.042 | [3] -0.084 | [4] 0.132 | [5] 0.012

POGLUT1 (UniProt Q8NBL1)
inactive: [1] 0.031 | [2] -0.025 | [3] 0.064 | [4] -0.046 | [5] 0.02

POMK (UniProt Q9H5K3)
inactive: [1] -0.051 | [2] -0.114 | [3] -0.016 | [4] 0.005 | [5] 0.023

PPFIA2 (UniProt O75334)
inactive: [1] 0.022 | [2] 0.041 | [3] 0.003 | [4] -0.016 | [5] -0.132

PMM2 (UniProt O15305)
inactive: [1] -0.008 | [2] -0.019 | [3] -0.015 | [4] 0.069 | [5] -0.008
